# This is one part of the list. Single values are uncertain here, since repeats match poorly.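 HEK293T cells were given each compound shortly before transfection with a reporter in which red mCherry is followed by the SARS-CoV-2 frameshift element and then GFP in the −1 frame, so GFP appears only after frameshifting.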
# Test system: HEK293T
# Assay: percent viability (nuclei count) relative to control; higher = more viable cells
# Details: 10 µM; 24 h
row,Compound,percent viability [%]
1,O=c1n(Cl)c(=O)n(Cl)c(=O)n1Cl [symclosene],225
2,CC(C)(C)NCC(O)c1ccc(O)c(O)c1 (configuration not stated) [colterol],147
3,NN=C(N)N,168
4,COC(C)(C)CCCC(C)C/C=C/C(C)=C/C(=O)OC(C)C (configuration not stated),426
5,CCCC(Cc1ccccc1)N1CCCC1 (configuration not stated) [prolintane],195
6,CN1C(=O)COc2c(C(=O)NC3CN4CCC3CC4)cc(Cl)cc21 (configuration not stated) [azasetron],66.7
7,CCCOC(=O)Cc1ccc(OCC(=O)N(CC)CC)c(OC)c1 [propanidid],466
8,CN[C@]1(c2ccccc2Cl)CCCCC1=O [esketamine],196
9,CCC1(CC)C(=O)NCC(C)C1=O (configuration not stated) [methyprylon],78.4
10,C[C@H]1CC(=O)C[C@@H]2CC[C@H]3[C@@H]4CC[C@H](O)[C@@]4(C)CC[C@@H]3[C@]21C [mesterolone],154
11,C[C@]12CCC(=O)C(O)=C1CC[C@@H]1[C@@H]2CC[C@@]2(C)[C@H]1CC[C@]2(C)O [oxymesterone],299
12,CCC(C(N)=O)N1CCCC1=O (configuration not stated) [etiracetam],208
13,O=C1CCO1 [propiolactone],162
14,COc1cc2c(c(OC)c1OC)-c1ccc(OC)c(=O)cc1[C@@H](NC(C)=O)CC2,11.9
15,C[C@]12CC[C@H](O)CC1=CC[C@@H]1[C@@H]2CC[C@]2(C)C(=O)CC[C@@H]12,319
16,COc1ccc2c(c1OC)C(=O)O[C@@H]2[C@H]1c2cc3c(cc2CCN1C)OCO3,174
17,CN1C(=O)C(O)N=C(c2ccccc2)c2cc(Cl)ccc21 (configuration not stated) [temazepam],34.8

# For convenience, some entries already given.
row,Compound,percent viability [%]
16,COc1ccc2c(c1OC)C(=O)O[C@@H]2[C@H]1c2cc3c(cc2CCN1C)OCO3,174
17,CN1C(=O)C(O)N=C(c2ccccc2)c2cc(Cl)ccc21 (configuration not stated) [temazepam],34.8
